Assay results taken from patent US11103562B2, “Composition comprising alkaline phosphatase for use in the treatment of arthritides” (AMRIF BV, priority 2017, dated 2021).

Test system: macrophages
Details: 4x AP, 60 min post tracer injection

B1: AP: human recombinant placenta alkaline phosphatase (hRESCAP; TNO, Zeist), an ectophosphatase (protein, UniProt P05187 23-506, looked up)
Alkaline phosphatase, …: IIPVEEENPDFWNREAAEALGAAKKLQPAQTAAKNLIIFLGDGMGVSTVTAARILKGQKKDKLGPEIPLAMDRFPYVALSKTYNVDKHVPDSGATATAYLCGVKGNFQTIGLSAAARFNQCNTTRGNEVISVMNRAKKAGKSVGVVTTTRVQHASPAGTYAHTVNRNWYSDADVPASARQEGCQDIATQLISNMDIDVILGGGRKYMFRMGTPDPEYPDDYSQGGTRLDGKNLVQEWLAKRQGARYVWNRTELMQASLDPSVTHLMGLFEPGDMKYEIHRDSTLDPSLMEMTEAALRLLSRNPRGFFLFVEGGRIDHGHHESRAYRALTETIMFDDAIERAGQLTSEEDTLSLVTADHSHVFSFGGYPLRGSSIFGLAPGKARDRKAYTVLLYGNGPGYVLKDGARPDVTESESGSPEYRQQSAVPLDEETHAGEDVAVFARGPQAHLVHGVQEQTFIAHVMAFAACLEPYTACDLAPPAGTTD
[^18F]fluoro-PEG-folate uptake, Blood, Avg: 0.007 % ID/g
[^18F]fluoro-PEG-folate uptake, Plasma, Avg (arthritic rats, n = 4): 0.010 % ID/g
